PubChem BioAssay AID1259254, NCATS, 2017
Aim: 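Genome-wide screen for genes that prevent DNA re-replication in cancer cells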 (primary screen). Cell system: human HCT116 colorectal cancer cells. Reagent: single siRNA against human genes. Duration: 3 days. Measured: 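Imaged Hoechst DNA stain sorts each cell into a cycle phase by DNA amount; per plate, G2 fraction set to 0% for non-targeting and 100% for GMNN siRNA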. Reading the numbers: G2 robust z-score and G2 cells, % of GMNN control: higher = more G2 cells, more excess DNA replication. Rule for the call: 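An siRNA counts as active if its G2 robust z-score lies at least 5 MADs above the screen median; here such calls match roughly 38% of GMNN control or more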.
The whole screen tested about 59,000 reagents; below is an unselected part. Over the whole deposit, about 1,550 (2.6%) were called active. 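G2 share is only a proxy for re-replication; each gene was hit by three separate siRNAs, and active genes were retested.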 Reagents against one gene are numbered here. Further read-outs or replicates are left out here. The record does not give: the amount of reagent.

For ZFP3 (GeneID 124961) #1, the values are G2 robust z-score -0.828; G2 cells, % of GMNN control -2.86; inactive. Knock-down of ZFP3 (GeneID 124961) #2 gave: G2 robust z-score 4.24; G2 cells, % of GMNN control 32.8; inactive. ZFP3 (GeneID 124961) #3 showed G2 robust z-score 2.23; G2 cells, % of GMNN control 18.7; inactive. After knock-down of GPCPD1 (GeneID 56261) #1, the screen gave G2 robust z-score 0.814; G2 cells, % of GMNN control 8.69; inactive. Silencing of GPCPD1 (GeneID 56261) #2 resulted in: G2 robust z-score -0.539; G2 cells, % of GMNN control -0.825; inactive. With knock-down of GPCPD1 (GeneID 56261) #3, the record shows G2 robust z-score 5.49; G2 cells, % of GMNN control 41.6; active.

Knock-down of RAB32 (GeneID 10981) #1 came out at: G2 robust z-score 1.5; G2 cells, % of GMNN control 13.5; inactive. Against RAB32 (GeneID 10981) #2, the values are G2 robust z-score -1.12; G2 cells, % of GMNN control -4.91; inactive. Depletion of RAB32 (GeneID 10981) #3 resulted in: G2 robust z-score 0.148; G2 cells, % of GMNN control 4.01; inactive. For GTF2IRD1 (GeneID 9569) #1, the values are G2 robust z-score 0.805; G2 cells, % of GMNN control 8.63; inactive. With knock-down of GTF2IRD1 (GeneID 9569) #2, the record shows G2 robust z-score 0.614; G2 cells, % of GMNN control 7.29; inactive. After knock-down of GTF2IRD1 (GeneID 9569) #3 the results were G2 robust z-score 0.272; G2 cells, % of GMNN control 4.88; inactive.

Targets listed so far whose target name begins with G or g (6):
GPCPD1 (GeneID 56261) #1: G2 robust z-score = 0.814; G2 cells, % of GMNN control = 8.69; Call = inactive
GPCPD1 (GeneID 56261) #2: G2 robust z-score = -0.539; G2 cells, % of GMNN control = -0.825; Call = inactive
GPCPD1 (GeneID 56261) #3: G2 robust z-score = 5.49; G2 cells, % of GMNN control = 41.6; Call = active
GTF2IRD1 (GeneID 9569) #1: G2 robust z-score = 0.805; G2 cells, % of GMNN control = 8.63; Call = inactive
GTF2IRD1 (GeneID 9569) #2: G2 robust z-score = 0.614; G2 cells, % of GMNN control = 7.29; Call = inactive
GTF2IRD1 (GeneID 9569) #3: G2 robust z-score = 0.272; G2 cells, % of GMNN control = 4.88; Call = inactive

Next reagents follow:
Against THBS3 (GeneID 7059) #1 the deposit lists G2 robust z-score -0.338; G2 cells, % of GMNN control 0.587; inactive. THBS3 (GeneID 7059) #2 scored G2 robust z-score 0.582; G2 cells, % of GMNN control 7.06; inactive. Knock-down of THBS3 (GeneID 7059) #3 came out at: G2 robust z-score 0.308; G2 cells, % of GMNN control 5.13; inactive. MUC6 (GeneID 4588) #1 showed G2 robust z-score 6.42; G2 cells, % of GMNN control 48.1; active. After knock-down of MUC6 (GeneID 4588) #2, the record shows G2 robust z-score -0.566; G2 cells, % of GMNN control -1.02; inactive. With knock-down of MUC6 (GeneID 4588) #3, the screen gave G2 robust z-score -0.177; G2 cells, % of GMNN control 1.72; inactive.

Knock-down of HOXD11 (GeneID 3237) #1 resulted in: G2 robust z-score -0.687; G2 cells, % of GMNN control -1.86; inactive. HOXD11 (GeneID 3237) #2 showed G2 robust z-score -1.37; G2 cells, % of GMNN control -6.68; inactive. HOXD11 (GeneID 3237) #3 showed G2 robust z-score -0.863; G2 cells, % of GMNN control -3.1; inactive. With knock-down of SLC25A32 (GeneID 81034) #1, the screen gave G2 robust z-score -0.303; G2 cells, % of GMNN control 0.838; inactive. After knock-down of SLC25A32 (GeneID 81034) #2 the results were G2 robust z-score -0.768; G2 cells, % of GMNN control -2.44; inactive. Silencing of SLC25A32 (GeneID 81034) #3 gave: G2 robust z-score -0.81; G2 cells, % of GMNN control -2.73; inactive.
